From patent publication US20240034757A1
No constants are given. Whether binding was seen depends on the method and setting.

Protein sequences, listed by entry. Tags and fused reporters are not part of them. Residues count along the entry.
UniProt P22362, residues 24-96: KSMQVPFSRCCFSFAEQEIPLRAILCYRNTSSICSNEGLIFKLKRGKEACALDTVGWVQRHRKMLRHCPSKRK
UniProt P13501, residues 24-91: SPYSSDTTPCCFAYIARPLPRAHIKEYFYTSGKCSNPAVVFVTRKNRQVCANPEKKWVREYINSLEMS
UniProt Q16663, residues 22-113: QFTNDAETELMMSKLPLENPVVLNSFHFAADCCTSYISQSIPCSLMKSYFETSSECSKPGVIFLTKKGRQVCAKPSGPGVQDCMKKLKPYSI
UniProt O15467, residues 24-120: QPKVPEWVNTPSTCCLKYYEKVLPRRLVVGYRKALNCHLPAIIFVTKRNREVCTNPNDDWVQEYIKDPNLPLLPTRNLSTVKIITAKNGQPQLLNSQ
UniProt Q92583, residues 24-94: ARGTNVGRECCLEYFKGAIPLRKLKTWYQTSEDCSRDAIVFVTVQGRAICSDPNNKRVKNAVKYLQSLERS
UniProt Q99731, residues 22-98: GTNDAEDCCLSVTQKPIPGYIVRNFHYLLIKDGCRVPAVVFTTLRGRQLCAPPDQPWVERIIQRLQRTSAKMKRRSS
UniProt P78556, residues 27-96: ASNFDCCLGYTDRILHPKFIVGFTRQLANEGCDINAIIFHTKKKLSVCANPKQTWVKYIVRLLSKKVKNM
UniProt O00585, residues 24-134: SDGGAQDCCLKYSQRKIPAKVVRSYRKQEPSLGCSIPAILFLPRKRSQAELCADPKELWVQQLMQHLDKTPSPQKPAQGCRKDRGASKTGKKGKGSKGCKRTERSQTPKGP
UniProt O00626, residues 25-93: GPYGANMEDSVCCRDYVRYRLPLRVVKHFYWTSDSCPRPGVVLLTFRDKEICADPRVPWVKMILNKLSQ
UniProt P55773, residues 22-120: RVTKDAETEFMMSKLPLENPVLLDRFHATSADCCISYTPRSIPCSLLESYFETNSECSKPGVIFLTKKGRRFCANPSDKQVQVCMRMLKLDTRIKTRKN
UniProt O00175, residues 27-104: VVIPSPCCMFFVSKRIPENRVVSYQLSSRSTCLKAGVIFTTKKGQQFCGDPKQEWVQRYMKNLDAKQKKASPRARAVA
UniProt Q9Y4X3, residues 25-112: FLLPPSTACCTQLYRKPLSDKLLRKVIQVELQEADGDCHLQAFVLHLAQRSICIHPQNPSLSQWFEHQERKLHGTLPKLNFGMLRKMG
UniProt Q9NRJ3, residues 23-127: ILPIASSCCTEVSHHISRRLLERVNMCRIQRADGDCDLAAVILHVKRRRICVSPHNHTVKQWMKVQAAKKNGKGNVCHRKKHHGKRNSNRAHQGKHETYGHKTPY
UniProt P78423, residues 25-100: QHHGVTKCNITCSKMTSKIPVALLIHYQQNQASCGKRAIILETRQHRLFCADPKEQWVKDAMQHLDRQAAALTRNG
UniProt P09341, residues 35-107: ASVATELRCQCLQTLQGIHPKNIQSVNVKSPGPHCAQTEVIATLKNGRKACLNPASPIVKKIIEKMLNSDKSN
UniProt P19875, residues 35-107: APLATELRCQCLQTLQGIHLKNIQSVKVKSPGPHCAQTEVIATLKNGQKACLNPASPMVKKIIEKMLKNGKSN
UniProt P19876, residues 35-107: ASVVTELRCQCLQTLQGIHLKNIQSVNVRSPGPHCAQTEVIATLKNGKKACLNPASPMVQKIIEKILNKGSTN
UniProt P02776, residues 32-101: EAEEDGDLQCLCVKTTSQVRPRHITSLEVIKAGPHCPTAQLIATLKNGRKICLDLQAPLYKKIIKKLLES
UniProt P42830, residues 41-114: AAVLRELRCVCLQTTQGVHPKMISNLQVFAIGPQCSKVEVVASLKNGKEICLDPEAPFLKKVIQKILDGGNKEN
UniProt P80162, residues 38-114: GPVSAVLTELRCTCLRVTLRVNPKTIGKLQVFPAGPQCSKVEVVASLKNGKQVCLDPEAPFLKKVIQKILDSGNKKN
UniProt P02775, residues 59-128: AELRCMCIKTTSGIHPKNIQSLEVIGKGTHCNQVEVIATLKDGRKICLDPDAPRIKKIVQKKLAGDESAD
UniProt P10145, residues 28-99: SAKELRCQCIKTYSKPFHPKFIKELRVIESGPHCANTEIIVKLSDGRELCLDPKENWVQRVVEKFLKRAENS
UniProt Q07325, residues 23-125: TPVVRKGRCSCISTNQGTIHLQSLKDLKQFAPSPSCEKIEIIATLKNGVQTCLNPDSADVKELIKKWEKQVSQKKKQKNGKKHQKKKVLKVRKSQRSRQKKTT
UniProt P02778, residues 22-98: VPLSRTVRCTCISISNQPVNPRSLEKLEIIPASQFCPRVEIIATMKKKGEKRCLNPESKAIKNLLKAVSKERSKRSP
UniProt O14625, residues 22-94: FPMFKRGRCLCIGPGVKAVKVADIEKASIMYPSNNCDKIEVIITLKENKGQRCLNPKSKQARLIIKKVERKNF
UniProt P48061, residues 22-89: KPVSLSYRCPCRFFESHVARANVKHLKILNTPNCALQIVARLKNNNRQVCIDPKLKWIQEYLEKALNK
UniProt O43927, residues 23-109: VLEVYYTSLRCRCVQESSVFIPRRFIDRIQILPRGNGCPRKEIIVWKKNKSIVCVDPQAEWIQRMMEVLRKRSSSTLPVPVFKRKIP
UniProt O95715, residues 35-111: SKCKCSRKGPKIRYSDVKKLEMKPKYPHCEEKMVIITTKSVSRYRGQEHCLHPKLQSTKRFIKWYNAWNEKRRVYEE
UniProt P55774, residues 21-89: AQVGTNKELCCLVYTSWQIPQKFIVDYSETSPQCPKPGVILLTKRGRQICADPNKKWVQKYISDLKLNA

Legend:
CCL1_HUMAN (human) [1] = biological target: CCL1_HUMAN (human) (UniProt P22362); assay: BLI, empty cell the 12th table, row 10, column 9
CCL5_HUMAN (human) [2] = biological target: CCL5_HUMAN (human) (UniProt P13501); assay: BLI, empty cell the 12th table, row 18, column 9
CCL15_HUMAN (human) [3] = biological target: CCL15_HUMAN (human) (UniProt Q16663); assay: BLI, empty cell the 12th table, row 25, column 9
CCL16_HUMAN (human) [4] = biological target: CCL16_HUMAN (human) (UniProt O15467); assay: BLI, empty cell the 12th table, row 26, column 9
CCL17_HUMAN (human) [5] = biological target: CCL17_HUMAN (human) (UniProt Q92583); assay: BLI, empty cell the 12th table, row 27, column 9
CCL19_HUMAN (human) [6] = biological target: CCL19_HUMAN (human) (UniProt Q99731); assay: BLI, empty cell the 12th table, row 29, column 9
CCL20_HUMAN (human) [7] = biological target: CCL20_HUMAN (human) (UniProt P78556); assay: BLI, empty cell the 12th table, row 30, column 9
CCL21_HUMAN (human) [8] = biological target: CCL21_HUMAN (human) (UniProt O00585); assay: BLI, empty cell the 12th table, row 32, column 9
CCL22_HUMAN (human) [9] = biological target: CCL22_HUMAN (human) (UniProt O00626); assay: BLI, empty cell the 12th table, row 33, column 9
CCL23_HUMAN (human) [10] = biological target: CCL23_HUMAN (human) (UniProt P55773); assay: BLI, empty cell the 12th table, row 34, column 9
CCL24_HUMAN (human) [11] = biological target: CCL24_HUMAN (human) (UniProt O00175); assay: BLI, empty cell the 12th table, row 35, column 9
CCL27_HUMAN (human) [12] = biological target: CCL27_HUMAN (human) (UniProt Q9Y4X3); assay: BLI, empty cell the 12th table, row 38, column 9
CCL28_HUMAN (human) [13] = biological target: CCL28_HUMAN (human) (UniProt Q9NRJ3); assay: BLI, empty cell the 12th table, row 40, column 9
CX3CL1_HUMAN (human) [14] = biological target: CX3CL1_HUMAN (human) (UniProt P78423); assay: BLI, empty cell the 12th table, row 41, column 9
CXCL1_HUMAN (human) [15] = biological target: CXCL1_HUMAN (human) (UniProt P09341); assay: BLI, empty cell the 12th table, row 42, column 9
CXCL2_HUMAN (human) [16] = biological target: CXCL2_HUMAN (human) (UniProt P19875); assay: BLI, empty cell the 12th table, row 43, column 9
CXCL3_HUMAN (human) [17] = biological target: CXCL3_HUMAN (human) (UniProt P19876); assay: BLI, empty cell the 12th table, row 44, column 9
CXCL4_HUMAN (human) [18] = biological target: CXCL4_HUMAN (human) (UniProt P02776); assay: BLI, empty cell the 12th table, row 45, column 9
CXCL5_HUMAN (human) [19] = biological target: CXCL5_HUMAN (human) (UniProt P42830); assay: BLI, empty cell the 12th table, row 46, column 9
CXCL6_HUMAN (human) [20] = biological target: CXCL6_HUMAN (human) (UniProt P80162); assay: BLI, empty cell the 12th table, row 47, column 9
CXCL7_HUMAN (human) [21] = biological target: CXCL7_HUMAN (human) (UniProt P02775); assay: BLI, empty cell the 12th table, row 48, column 9
CXCL8_HUMAN (human) [22] = biological target: CXCL8_HUMAN (human) (UniProt P10145); assay: BLI, empty cell the 12th table, row 49, column 9
CXCL9_HUMAN (human) [23] = biological target: CXCL9_HUMAN (human) (UniProt Q07325); assay: BLI, empty cell the 12th table, row 50, column 9
CXCL10_HUMAN (human) [24] = biological target: CXCL10_HUMAN (human) (UniProt P02778); assay: BLI, empty cell the 12th table, row 51, column 9
CXCL11_HUMAN (human) [25] = biological target: CXCL11_HUMAN (human) (UniProt O14625); assay: BLI, empty cell the 12th table, row 52, column 9
CXCL12_HUMAN (human) [26] = biological target: CXCL12_HUMAN (human) (UniProt P48061); assay: BLI, empty cell the 12th table, row 53, column 9
CXCL13_HUMAN (human) [27] = biological target: CXCL13_HUMAN (human) (UniProt O43927); assay: BLI, empty cell the 12th table, row 54, column 9
CXCL14_HUMAN (human) [28] = biological target: CXCL14_HUMAN (human) (UniProt O95715); assay: BLI, empty cell the 12th table, row 55, column 9
XCL1_HUMAN (human) [29] = biological target: T1, XCL1_HUMAN (human) (UniProt P47992); assay: BLI, empty cell the 12th table, row 59, column 9
T1 sequence: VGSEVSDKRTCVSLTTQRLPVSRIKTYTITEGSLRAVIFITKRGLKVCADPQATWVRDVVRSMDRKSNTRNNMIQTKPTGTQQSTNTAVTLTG

CCL1_HUMAN (human) [30] = biological target: CCL1_HUMAN (human) (UniProt P22362); assay: BLI, empty cell the 12th table, row 10, column 10
CCL5_HUMAN (human) [31] = biological target: CCL5_HUMAN (human) (UniProt P13501); assay: BLI, empty cell the 12th table, row 18, column 10
CCL15_HUMAN (human) [32] = biological target: CCL15_HUMAN (human) (UniProt Q16663); assay: BLI, empty cell the 12th table, row 25, column 10
CCL16_HUMAN (human) [33] = biological target: CCL16_HUMAN (human) (UniProt O15467); assay: BLI, empty cell the 12th table, row 26, column 10
CCL17_HUMAN (human) [34] = biological target: CCL17_HUMAN (human) (UniProt Q92583); assay: BLI, empty cell the 12th table, row 27, column 10
CCL18_HUMAN (human) = CCL18_HUMAN (human) (UniProt P55774); assay: BLI, empty cell the 12th table, row 28, column 10
CCL19_HUMAN (human) [35] = biological target: CCL19_HUMAN (human) (UniProt Q99731); assay: BLI, empty cell the 12th table, row 29, column 10
CCL20_HUMAN (human) [36] = biological target: CCL20_HUMAN (human) (UniProt P78556); assay: BLI, empty cell the 12th table, row 30, column 10
CCL21_HUMAN (human) [37] = biological target: CCL21_HUMAN (human) (UniProt O00585); assay: BLI, empty cell the 12th table, row 32, column 10
CCL22_HUMAN (human) [38] = biological target: CCL22_HUMAN (human) (UniProt O00626); assay: BLI, empty cell the 12th table, row 33, column 10
CCL23_HUMAN (human) [39] = biological target: CCL23_HUMAN (human) (UniProt P55773); assay: BLI, empty cell the 12th table, row 34, column 10
CCL24_HUMAN (human) [40] = biological target: CCL24_HUMAN (human) (UniProt O00175); assay: BLI, empty cell the 12th table, row 35, column 10
CCL27_HUMAN (human) [41] = biological target: CCL27_HUMAN (human) (UniProt Q9Y4X3); assay: BLI, empty cell the 12th table, row 38, column 10
CCL28_HUMAN (human) [42] = biological target: CCL28_HUMAN (human) (UniProt Q9NRJ3); assay: BLI, empty cell the 12th table, row 40, column 10
CX3CL1_HUMAN (human) [43] = biological target: CX3CL1_HUMAN (human) (UniProt P78423); assay: BLI, empty cell the 12th table, row 41, column 10
CXCL1_HUMAN (human) [44] = biological target: CXCL1_HUMAN (human) (UniProt P09341); assay: BLI, empty cell the 12th table, row 42, column 10
CXCL2_HUMAN (human) [45] = biological target: CXCL2_HUMAN (human) (UniProt P19875); assay: BLI, empty cell the 12th table, row 43, column 10
CXCL3_HUMAN (human) [46] = biological target: CXCL3_HUMAN (human) (UniProt P19876); assay: BLI, empty cell the 12th table, row 44, column 10
CXCL4_HUMAN (human) [47] = biological target: CXCL4_HUMAN (human) (UniProt P02776); assay: BLI, empty cell the 12th table, row 45, column 10
CXCL5_HUMAN (human) [48] = biological target: CXCL5_HUMAN (human) (UniProt P42830); assay: BLI, empty cell the 12th table, row 46, column 10
CXCL6_HUMAN (human) [49] = biological target: CXCL6_HUMAN (human) (UniProt P80162); assay: BLI, empty cell the 12th table, row 47, column 10
CXCL7_HUMAN (human) [50] = biological target: CXCL7_HUMAN (human) (UniProt P02775); assay: BLI, empty cell the 12th table, row 48, column 10
CXCL8_HUMAN (human) [51] = biological target: CXCL8_HUMAN (human) (UniProt P10145); assay: BLI, empty cell the 12th table, row 49, column 10
CXCL9_HUMAN (human) [52] = biological target: CXCL9_HUMAN (human) (UniProt Q07325); assay: BLI, empty cell the 12th table, row 50, column 10
CXCL10_HUMAN (human) [53] = biological target: CXCL10_HUMAN (human) (UniProt P02778); assay: BLI, empty cell the 12th table, row 51, column 10
CXCL11_HUMAN (human) [54] = biological target: CXCL11_HUMAN (human) (UniProt O14625); assay: BLI, empty cell the 12th table, row 52, column 10
CXCL12_HUMAN (human) [55] = biological target: CXCL12_HUMAN (human) (UniProt P48061); assay: BLI, empty cell the 12th table, row 53, column 10
CXCL13_HUMAN (human) [56] = biological target: CXCL13_HUMAN (human) (UniProt O43927); assay: BLI, empty cell the 12th table, row 54, column 10
CXCL14_HUMAN (human) [57] = biological target: CXCL14_HUMAN (human) (UniProt O95715); assay: BLI, empty cell the 12th table, row 55, column 10
XCL1_HUMAN (human) [58] = biological target: T1, XCL1_HUMAN (human); assay: BLI, empty cell the 12th table, row 59, column 10

Measured: binding

B1: P1180_AMBTR (protein)
chain: EEPKDGYDYTEGCPFVVLGNGTHAKPAGCSHLCNGAPETLDDNMECYNVTEEVAKRMTPDIPYTCWLGWCSKGECKRDNRTEVCYRGSERE
no binding (tested: 300 nM): CCL1_HUMAN (human) [1] | CCL5_HUMAN (human) [2] | CCL15_HUMAN (human) [3] | CCL16_HUMAN (human) [4] | CCL17_HUMAN (human) [5] | CCL19_HUMAN (human) [6] | CCL20_HUMAN (human) [7] | CCL21_HUMAN (human) [8] | CCL22_HUMAN (human) [9] | CCL23_HUMAN (human) [10] | CCL24_HUMAN (human) [11] | CCL27_HUMAN (human) [12] | CCL28_HUMAN (human) [13] | CX3CL1_HUMAN (human) [14] | CXCL1_HUMAN (human) [15] | CXCL2_HUMAN (human) [16] | CXCL3_HUMAN (human) [17] | CXCL4_HUMAN (human) [18] | CXCL5_HUMAN (human) [19] | CXCL6_HUMAN (human) [20] | CXCL7_HUMAN (human) [21] | CXCL8_HUMAN (human) [22] | CXCL9_HUMAN (human) [23] | CXCL10_HUMAN (human) [24] | CXCL11_HUMAN (human) [25] | CXCL12_HUMAN (human) [26] | CXCL13_HUMAN (human) [27] | CXCL14_HUMAN (human) [28] | XCL1_HUMAN (human) [29]

B2: P983_AMBCA (protein)
chain: EDTGTEDDFDYGNTGCPFPVLGNYKSNMTKPVGCKNKCGSGYEVLNDTTPCYVIDQKVFNNMVPLRQYSKCPLGFCENGECKPNDQAEDCYKGREEQK
no binding (tested: 300 nM): CCL1_HUMAN (human) [30] | CCL5_HUMAN (human) [31] | CCL15_HUMAN (human) [32] | CCL16_HUMAN (human) [33] | CCL17_HUMAN (human) [34] | CCL18_HUMAN (human) | CCL19_HUMAN (human) [35] | CCL20_HUMAN (human) [36] | CCL21_HUMAN (human) [37] | CCL22_HUMAN (human) [38] | CCL23_HUMAN (human) [39] | CCL24_HUMAN (human) [40] | CCL27_HUMAN (human) [41] | CCL28_HUMAN (human) [42] | CX3CL1_HUMAN (human) [43] | CXCL1_HUMAN (human) [44] | CXCL2_HUMAN (human) [45] | CXCL3_HUMAN (human) [46] | CXCL4_HUMAN (human) [47] | CXCL5_HUMAN (human) [48] | CXCL6_HUMAN (human) [49] | CXCL7_HUMAN (human) [50] | CXCL8_HUMAN (human) [51] | CXCL9_HUMAN (human) [52] | CXCL10_HUMAN (human) [53] | CXCL11_HUMAN (human) [54] | CXCL12_HUMAN (human) [55] | CXCL13_HUMAN (human) [56] | CXCL14_HUMAN (human) [57] | XCL1_HUMAN (human) [58]
